We go through 1 substance from PMC11880080.

Amino acid sequences for entries named in this document (tags omitted).
UniProt Q99MK2: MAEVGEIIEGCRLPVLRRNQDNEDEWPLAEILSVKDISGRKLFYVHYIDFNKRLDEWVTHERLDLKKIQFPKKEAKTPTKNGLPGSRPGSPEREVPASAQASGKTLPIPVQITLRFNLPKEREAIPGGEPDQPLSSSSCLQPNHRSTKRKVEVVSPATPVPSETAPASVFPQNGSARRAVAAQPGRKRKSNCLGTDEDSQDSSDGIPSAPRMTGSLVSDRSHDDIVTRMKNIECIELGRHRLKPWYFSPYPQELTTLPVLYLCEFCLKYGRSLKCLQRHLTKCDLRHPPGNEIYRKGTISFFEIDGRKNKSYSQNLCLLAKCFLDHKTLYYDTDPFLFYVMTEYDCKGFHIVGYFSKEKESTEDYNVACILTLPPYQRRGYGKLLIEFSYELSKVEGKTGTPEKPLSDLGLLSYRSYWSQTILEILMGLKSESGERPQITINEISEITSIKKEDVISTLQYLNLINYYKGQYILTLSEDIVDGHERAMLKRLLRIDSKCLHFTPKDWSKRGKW

This assay deals with T1, stargazin (Stg), auxiliary subunit of AMPAR-type glutamate receptors (rat (endogenous in primary hippocampal neurons)) (UniProt Q71RJ2).
T1 sequence: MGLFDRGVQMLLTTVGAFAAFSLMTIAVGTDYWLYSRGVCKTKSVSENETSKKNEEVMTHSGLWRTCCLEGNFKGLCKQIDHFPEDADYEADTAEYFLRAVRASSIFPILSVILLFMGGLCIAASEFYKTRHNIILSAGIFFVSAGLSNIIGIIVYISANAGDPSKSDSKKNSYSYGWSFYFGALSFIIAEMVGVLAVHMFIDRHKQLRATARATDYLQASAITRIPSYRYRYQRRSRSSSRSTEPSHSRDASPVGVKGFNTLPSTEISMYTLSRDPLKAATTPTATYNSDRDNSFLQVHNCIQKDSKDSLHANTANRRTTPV
Kind of assay: proximity ligation; conventional antibody-based Duolink PLA (no nanobodies) on fixed primary rat hippocampal neurons; positive and negative control pairs.

Results are given in words; binding and its absence hold for the method and conditions named. In cells and extracts the contact can be indirect.

“Tat-interactive protein 60 (TIP60), nuclear histone acetylase (from UniProt Q99MK2 1-513)”: the binding result is recorded as “no binding”.
